Test results from publication PMC5378395.
No constants are given. Whether binding was seen depends on the method and setting. For some assays here: Binding seen in cells or lysates may run through a third protein. Some entries that bind do so weakly or less than the wild type.

The chains behind the UniProt entries cited, without tags or fusion partners.
UniProt Q6NXT1: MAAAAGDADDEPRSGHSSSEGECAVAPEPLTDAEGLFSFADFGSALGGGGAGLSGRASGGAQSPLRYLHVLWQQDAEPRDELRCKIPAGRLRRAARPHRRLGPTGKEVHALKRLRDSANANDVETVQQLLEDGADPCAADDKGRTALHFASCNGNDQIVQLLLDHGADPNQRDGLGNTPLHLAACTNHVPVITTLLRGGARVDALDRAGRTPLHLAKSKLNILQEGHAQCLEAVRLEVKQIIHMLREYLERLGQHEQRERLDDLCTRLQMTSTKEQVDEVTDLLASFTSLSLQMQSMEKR

How the values were obtained:
[1] = molecular target: commercially available recombinant ANKRD54 (UniProt Q6NXT1); experiment: ELISA; phage-ELISA; commercially available recombinant ANKRD54 adhered to plastic; SH3 phage dilutions 1:10 to 1:160; data not shown; only the target purified
[2] = molecular target: ANKRD54 wild-type with biotinylation target-domain (pEBB-pp-ANKRD54) (UniProt Q6NXT1); experiment: phage display bio-panning; biotinylated ANKRD54 from transfected HEK 293T lysate immobilized on M-280 streptavidin beads, incubated with phages of a library of all 296 human SH3 domains; retained clones sequenced; three experiments; only the target purified
[3] = molecular target: ANKRD54 wild-type with biotinylation target-domain (pEBB-pp-ANKRD54) (UniProt Q6NXT1); experiment: pull-down; ANKRD54-BTD-wt and BTK mutants transfected separately into Cos7 cells; ANKRD54 enriched on streptavidin beads, then incubated with each BTK lysate; immunoblot (Fig 6); only the target purified

| Binder | binding [1] | binding [2] | binding [3] |
| --- | --- | --- | --- |
| SNX33 SH3 domain displayed on phage (domain or fragment, UniProt Q8WV41 1-61) MALKGRALYDFHSENKEEISIQQDEDLVIFSETSLDGWLQGQNSRGETGLFPASYVEIVRS | binds weakly | binds |  |
| PLCγ1 SH3 domain displayed on phage (domain or fragment, UniProt P19174 791-851) TFKCAVKALFDYKAQREDELTFIKSAIIQNVEKQEGGWWRGDYGGKKQLWFPSNYVEEMVN | binds weakly | binds |  |
| DLG3 SH3 domain displayed on phage (domain or fragment, UniProt Q92796 501-571) KRSLYVRALFDYDRTRDSCLPSQGLSFSYGDILHVINASDDEWWQARLVTPHGESEQIGVIPSKKRVEKKE |  | binds |  |
| SH3YL1 SH3 domain displayed on phage (domain or fragment, UniProt Q96HL8 283-342) NQPIEVTALYSFEGQQPGDLNFQAGDRITVISKTDSHFDWWEGKLRGQTGIFPANYVTMN |  | binds |  |
| ARHGAP26 SH3 domain displayed on phage (domain or fragment, UniProt Q9UNA1 756-814) TPFRKAKALYACKAEHDSELSFTAGTVFDNVHPSQEPGWLEGTLNGKTGLIPENYVEFL |  | binds |  |
| GAS7 SH3 domain displayed on phage (domain or fragment, UniProt O60861 1-62) MSGARCRTLYPFSGERHGQGLRFAAGELITLLQVPDGGWWEGEKEDGLRGWFPASYVQLLEK |  | binds |  |
| BTK P265A mutant (protein, UniProt Q06187 1-659) MAAVILESIFLKRSQQKKKTSPLNFKKRLFLLTVHKLSYYEYDFERGRRGSKKGSIDVEKITCVETVVPEKNPPPERQIPRRGEESSEMEQISIIERFPYPFQVVYDEGPLYVFSPTEELRKRWIHQLKNVIRYNSDLVQKYHPCFWIDGQYLCCSQTAKNAMGCQILENRNGSLKPGSSHRKTKKPLPPTPEEDQILKKPLPPEPAAAPVSTSELKKVVALYDYMPMNANDLQLRKGDEYFILEESNLPWWRARDKNGQEGYIASNYVTEAEDSIEMYEWYSKHMTRSQAEQLLKQEGKEGGFIVRDSSKAGKYTVSVFAKSTGDPQGVIRHYVVCSTPQSQYYLAEKHLFSTIPELINYHQHNSAGLISRLKYPVSQQNKNAPSTAGLGYGSWEIDPKDLTFLKELGTGQFGVVKYGKWRGQYDVAIKMIKEGSMSEDEFIEEAKVMMNLSHEKLVQLYGVCTKQRPIFIITEYMANGCLLNYLREMRHRFQTQQLLEMCKDVCEAMEYLESKQFLHRDLAARNCLVNDQGVVKVSDFGLSRYVLDDEYTSSVGSKFPVRWSPPEVLMYSKFSSKSDIWAFGVLMWEIYSLGKMPYERFTNSETAEHIAQGLRLYRPHLASEKVYTIMYSCWHEKADERPTFKILLSNILDVMDEES |  |  | binds |
| BTK Y268A mutant (protein, UniProt Q06187 1-659) MAAVILESIFLKRSQQKKKTSPLNFKKRLFLLTVHKLSYYEYDFERGRRGSKKGSIDVEKITCVETVVPEKNPPPERQIPRRGEESSEMEQISIIERFPYPFQVVYDEGPLYVFSPTEELRKRWIHQLKNVIRYNSDLVQKYHPCFWIDGQYLCCSQTAKNAMGCQILENRNGSLKPGSSHRKTKKPLPPTPEEDQILKKPLPPEPAAAPVSTSELKKVVALYDYMPMNANDLQLRKGDEYFILEESNLPWWRARDKNGQEGYIPSNAVTEAEDSIEMYEWYSKHMTRSQAEQLLKQEGKEGGFIVRDSSKAGKYTVSVFAKSTGDPQGVIRHYVVCSTPQSQYYLAEKHLFSTIPELINYHQHNSAGLISRLKYPVSQQNKNAPSTAGLGYGSWEIDPKDLTFLKELGTGQFGVVKYGKWRGQYDVAIKMIKEGSMSEDEFIEEAKVMMNLSHEKLVQLYGVCTKQRPIFIITEYMANGCLLNYLREMRHRFQTQQLLEMCKDVCEAMEYLESKQFLHRDLAARNCLVNDQGVVKVSDFGLSRYVLDDEYTSSVGSKFPVRWSPPEVLMYSKFSSKSDIWAFGVLMWEIYSLGKMPYERFTNSETAEHIAQGLRLYRPHLASEKVYTIMYSCWHEKADERPTFKILLSNILDVMDEES |  |  | no binding |
| BTK P265A/Y268A double mutant (protein, UniProt Q06187 1-659) MAAVILESIFLKRSQQKKKTSPLNFKKRLFLLTVHKLSYYEYDFERGRRGSKKGSIDVEKITCVETVVPEKNPPPERQIPRRGEESSEMEQISIIERFPYPFQVVYDEGPLYVFSPTEELRKRWIHQLKNVIRYNSDLVQKYHPCFWIDGQYLCCSQTAKNAMGCQILENRNGSLKPGSSHRKTKKPLPPTPEEDQILKKPLPPEPAAAPVSTSELKKVVALYDYMPMNANDLQLRKGDEYFILEESNLPWWRARDKNGQEGYIASNAVTEAEDSIEMYEWYSKHMTRSQAEQLLKQEGKEGGFIVRDSSKAGKYTVSVFAKSTGDPQGVIRHYVVCSTPQSQYYLAEKHLFSTIPELINYHQHNSAGLISRLKYPVSQQNKNAPSTAGLGYGSWEIDPKDLTFLKELGTGQFGVVKYGKWRGQYDVAIKMIKEGSMSEDEFIEEAKVMMNLSHEKLVQLYGVCTKQRPIFIITEYMANGCLLNYLREMRHRFQTQQLLEMCKDVCEAMEYLESKQFLHRDLAARNCLVNDQGVVKVSDFGLSRYVLDDEYTSSVGSKFPVRWSPPEVLMYSKFSSKSDIWAFGVLMWEIYSLGKMPYERFTNSETAEHIAQGLRLYRPHLASEKVYTIMYSCWHEKADERPTFKILLSNILDVMDEES |  |  | no binding |
